These results are taken from publication PMC10163288.

First the molecules themselves.
B1: il2ra_site2_2erj_sap_23_mot_HHH_b1_01555_af2_000000123_0001_22_39_H_._HHH_b2_01800_0001_0000100003_0000001_0_0001 (protein)
chain: SSSSSSQQEAWEEVAELLARAAHIPDPEEVEELLEEAKRLAEEANNEFLKKYIEFARRSHSSSSS
B2: il2ra_site1_2b5i_normal_mot_HHH_b1_08426_af2_000000046_0001_39_52_H_._HHH_b2_01859_af2_0001_0000200020_0000001_0_af2pred_0001_af2pred (protein)
chain: SSSSDDEEEEHVFKAFREASRLALRGNPEEAREVLEEALRLAEENNDERIVKDLEEFLKRLSSSS
B3: il2ra_site2_3nfp_normal_mot_HHH_b1_00660_af2_000000090_0001_40_57_H_._HHH_b2_00996_0001_0000300009_0000001_1_af2pred_0001_af2pred_swapped (protein)
chain: SSSSSEQEEAERLVEEVEELLKEGDPERAERLLKEASLVVAELGDEELFIALLQLRELLESSSSS
B4: il2ra_site2_2erj_normal_mot_HHH_b1_04373_af2_000000118_0001_18_33_H_._HHH_b1_00954_af2_0001_0000100003_0000001_0 (protein)
chain: SSSSDELEELYKLAVELLHLVYRGDEEEFEEVAKRVRELVEELQSESAREILEFLEEEIKSSSSS
B5: il2ra_site2_3nfp_normal_mot_HHH_b1_00660_af2_000000199_0001_40_57_H_._HHH_b1_04548_af2_0001_0000200005_0000001_0 (protein)
chain: SSSSDEEVEELLEEAKKLLEEGNPEEARKLIARAAAIAYELNDHELFAAVQELLEEIVRRSSSSS
B6: il2ra_site1_2b5i_normal_mot_HHH_b1_06258_af2_000000112_0001_42_56_H_._HHH_b1_00260_0001_0000100006_0000001_0 (protein)
chain: SSSSDEEEHEVTRLFSEASRAWKEGNPEEAQRLLEEALELAREIGDPRAEEQIRFMLERLRSSSS
B7: il2ra_site1_2b5i_normal_mot_HHH_b1_06844_000000212_0001_1_18_H_._HHH_b2_05789_0001_0000100007_0000001_0_af2pred_dldesign_0_af2pred (protein)
chain: SSSSSSSVEKAEEARRLFLEANTLEDEEERKKLLEEALKLAEEGKCSSLVKLLKLALELVSSSSS
B8: il2ra_site2_2erj_normal_mot_HHH_b2_06512_000000233_0001_19_37_H_._HEEHE_0423_0001_0000200005_0000001_1_af2pred_0001_1_af2pred_swapped (protein)
chain: SDEALAAIMIEAAAERAGVPSVSVEVSNGTIEVTVEGNDEAVEFLREIAENAAKLLGLEVHVETE
B9: il2ra_site1_2b5i_normal_mot_HHH_b2_04910_000000118_0001_1_19_H_._HHH_b2_03705_af2_0001_0000100001_0000001_0_af2pred_dldesign_0_af2pred (protein)
chain: SSSSSPLAREAYELFLKANELYQAGKEEEAKKVLEKAAEVAKAGGATSLLKLIESALKEFSSSSS
B10: il2ra_site1_3nfp_sap_7_mot_HHH_b1_00258_000000025_0001_42_56_H_._HHH_b1_08208_0001_0000200008_0000001_0_0001_af2pred_0001_af2pred_swapped (protein)
chain: SSSSSEIEEEVRELLEEIERLLREGDFEEARKVSEEVLKIARKGNDKEAEKLIKEAVKRNSSSSS

Some of the results follow.

The target in the assay is il2ra, P01589. Briefly: yeast display titration.
As to B1, the “apparent Kd” value is “inactive: no binding seen”. Turning to B2, the “apparent Kd” value was “inactive: no binding seen”.

Turning to B3, the “apparent Kd” value is “inactive: no binding seen”. In the case of B4 it was “inactive: no binding seen”; in that of B5, “inactive: no binding seen”. In the case of B6, the “apparent Kd” value is “inactive: no binding seen”. In the case of B7 it was “inactive: no binding seen”. Take B8: the “apparent Kd” value is “inactive: no binding seen”.

Consider B9, for which the “apparent Kd” value was “inactive: no binding seen”. In the case of B10 it was “inactive: no binding seen”.
